Measurements published in patent US9551021B2, “Methods and compositions for detecting pathogenic bacteria” (Washington University, priority 2012, dated 2017).
Some of these results come from one statement about several compounds together.

Tested on: UT189
Assay: Copper mediated cytotoxicity assay, wild type strain
Assay type: cell-based, E. coli
Conditions: 20 μM added to 10 μM copper (II) sulfate; LOD=20 CFU/mL
Experimental: Following overnight growth in 50 mL M63 minimal media, bacterial cultures were washed twice in phosphate buffered saline (PBS, Sigma) and centrifuged at 6,500 rpm. Washed cultures were resuspended in fresh M63 minimal media, and normalized to 10^8 CFU/mL for subsequent treatment. Normalized cultures were treated with varying concentrations of copper (II) sulfate and test agent in 2 mL reaction volumes in 6-well tissue culture plates. Samples were incubated for 20 hours at 37° C. with shaking. Bacterial viability was reported as the number of colony forming units per milliliter of the reaction volume post-treatment (CFU/mL).

## O=C(O)c1cccc(O)c1O [DHB, 2,3-dihydroxybenzoic acid]
  viable cells: < 20 CFU/mL

## O=C(N[C@H]1COC(=O)[C@@H](NC(=O)c2cccc(O)c2O)COC(=O)[C@@H](NC(=O)c2cccc(O)c2O)COC1=O)c1cccc(O)c1O [enterobactin]
  viable cells: < 20 CFU/mL
